# PubChem BioAssay AID2283234 (EPA ToxCast)
# The list shows a part of the results, in another mix than the full data. Inconclusive results are not listed. Activity calls are given as the source filed them. The calls were made as follows: active = hit-call score of the fitted dose curve at least 0.9, where 1 is the maximum; inconclusive = response in the unintended direction; inactive = score below 0.9.
# Target: human Dual Specificity Styrosine-Phosphorylation-Regulated Kinase 1A (DYRK1a), DYRK1A (gene 1859) (UniProt Q13627)
# Assay: NVS_ENZ_hDYRK1a: NovaScreen (NVS) Enzymatic Assay for human Dual Specificity Styrosine-Phosphorylation-Regulated Kinase 1A (DYRK1a)
# Method: NVS_ENZ_hDYRK1a is a biochemical, single-readout assay that uses extracted gene-proteins in a cell-free assay. Measurements were taken 1 hour after chemical dosing in a 96-well plate.NVS_ENZ_hDYRK1a is one of one assay component(s) measured or calculated from the NVS_ENZ_hDYRK1a assay. It is designed to make measurements of enzyme activity, a form of enzyme reporter, as detected with fluorescence intensity signals by Fluorescence and electrophoretic mobility shift technology.Data from the assay component NVS_ENZ_hDYRK1a was analyzed into 1 assay endpoint. This assay endpoint, NVS_ENZ_hDYRK1a, was analyzed in the positive analysis fitting direction relative to DMSO as the negative control and baseline of activity. Using a type of enzyme reporter, loss-of-signal activity can be used to understand changes in the enzymatic activity as they relate to the gene DYRK1A. Furthermore, this assay endpoint can be referred to as a primary readout, because this assay has produced multiple assay endpoints where this one serves a enzymatic activity function. To generalize the intended target to other relatable targets, this assay endpoint is annotated to the kinase intended target family, where the subfamily is dual-specific kinase. […]
smiles,measurement,value
O=S(=O)(O)C(F)(F)C(F)(F)C(F)(F)C(F)(F)C(F)(F)C(F)(F)C(F)(F)C(F)(F)F,AC50,active: 18.5 µM
